Measurements from the supplement of paper PMC12823440, “Inhibitors supercharge kinase turnover through native proteolytic circuits” (Nature, 2025).
Counter-ions that a name gives are not always drawn. The list shows a part of the results. The calls rarely recur for the same compound in another form.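 In K562 cells expressing nanoluciferase-fused kinases, luminescence was recorded at 4 h intervals between 2 and 18 h, normalized as percent of control with DMSO at 100% and a positive control at 0%. A significant (2 sigma) signal drop marks a time point as decreased. The authors' rule for a hit is not shown and takes in more than the number of time points.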

Protein sequences, listed by entry. Tags and fused reporters are not part of them. Lines headed by an entry give the natural chain unless they say otherwise; changes in a name come on top.
UniProt P11802: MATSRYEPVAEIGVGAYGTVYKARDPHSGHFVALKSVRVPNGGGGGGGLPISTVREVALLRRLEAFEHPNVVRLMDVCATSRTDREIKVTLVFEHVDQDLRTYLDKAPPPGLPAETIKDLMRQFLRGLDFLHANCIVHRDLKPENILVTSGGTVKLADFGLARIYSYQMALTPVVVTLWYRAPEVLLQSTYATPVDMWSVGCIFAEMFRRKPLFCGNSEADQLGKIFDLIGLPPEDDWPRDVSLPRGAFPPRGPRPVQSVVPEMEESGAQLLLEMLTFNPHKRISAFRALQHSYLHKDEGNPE

Biological target: CDK4 (UniProt P11802)
Assay: kinase-Nluc reporter destabilization hit call (1 = scored as downregulated) (binary); higher = compound decreases kinase abundance
Conditions: K562; 2-18 h

kinase-Nluc reporter destabilization hit call, inactive:
N#Cc1ccc2[nH]c(O)c(-c3ccc(CN4CCOCC4)cn3)c2c1 (10 µM) 0
O=C1NCCc2[nH]c(-c3ccnc(-c4cnc5ccccc5c4)c3)cc21 (10 µM) 0
Oc1cc(O)cc(/C=C/c2ccc(O)c(O)c2)c1 [Piceatannol] (10 µM) 0
O=C(NOC[C@H](O)CO)c1ccc(F)c(F)c1Nc1ccc(I)cc1F (2.5 µM) 0
Cn1c(=O)n(-c2ccc(C(C)(C)C#N)cc2)c2c3cc(-c4cnc5ccccc5c4)ccc3ncc21 [Dactolisib (Tosylate)] (10 µM) 0
CCCCNc1ncc(-c2ccc(CN3CCOCC3)cn2)c(NC2CCC(O)CC2)n1 (centres undefined) (10 µM) 0
O=C(Nc1cc(C(F)(F)F)ccc1N1CCN(Cc2ccccn2)CC1)c1ccc(-c2ccncc2)o1 (10 µM) 0
CC[C@H](CO)Nc1nc(NCc2ccccc2)c2ncn(C(C)C)c2n1 [Seliciclib] (10 µM) 0
COC(=O)c1ccc2c(C(=Nc3ccc(N(C)C(=O)CN4CCN(C)CC4)cc3)c3ccccc3)c(O)[nH]c2c1 [Nintedanib] (2.5 µM) 0
COc1cc(F)cc([C@@H](CO)NC(=O)[C@@H](C)N2Cc3ccc(-c4nc(NC5CCOCC5)ncc4Cl)cc3C2=O)c1 [ERK1/2 inhibitor 2] (10 µM) 0
CC(C)c1ccc2oc3nc(N)c(C(=O)O)cc3c(=O)c2c1 [Amlexanox] (10 µM) 0
CCc1nc(-c2cccc(C)c2)c(-c2ccnc(NC(=O)c3ccccc3)c2)s1 (10 µM) 0
CCOc1cc2ncc(-c3cc(N)nc(F)c3)n2cc1S(=O)(=O)C(C)(C)C (10 µM) 0
CC(C)(/C=C(\C#N)C(=O)N1CCC[C@@H](n2nc(-c3ccc(Oc4ccccc4)cc3F)c3c(N)ncnc32)C1)N1CCN(C2COC2)CC1 (2.5 µM) 0
CCCn1cnc2c(NCc3ccccc3)nc(NC(CC)CO)nc21 (centres undefined) [Ca2+ channel agonist 1] (2.5 µM) 0
Brc1c(Br)c(Br)c2n[nH]nc2c1Br (10 µM) 0
Nc1nc(OCC2CCCCC2)c2[nH]cnc2n1 (10 µM) 0
COc1ccc(Oc2cc(NCCC(F)(F)F)c3ncc(-c4ccc(C(=O)NC5CC5)c(C)c4)n3n2)c(F)c1F (2.5 µM) 0
COc1cc(C(=O)NC2CCN(C)CC2)c(F)cc1Nc1ncc2c(n1)N(C1CCCC1)CC(F)(F)C(=O)N2C [TAK-960 (dihydrochloride)] (2.5 µM) 0
COc1ccc(NC(=O)N2CCN(c3nc(N)nc4c3cnn4C)[C@@H](C)C2)c(C)c1 (10 µM) 0
O=C(Nc1ccc(-c2ccnc(Nc3ccc(N4CCOCC4)cc3)n2)cc1)C1CCCN1 (centres undefined) (10 µM) 0
COc1nccc(-c2c(-c3ccc(F)cc3)ncn2C2CCC(O)CC2)n1 (centres undefined) (10 µM) 0
NC(=O)c1ccc2nc(-c3ccc(Oc4ccc(Cl)cc4)cc3)[nH]c2c1 (10 µM) 0
Cc1cc(C)c(/C=C2\C(=O)Nc3ccccc32)[nH]1 [Semaxinib] (10 µM) 0
COc1ccc(COc2ccc(Cc3cnc(N)nc3N)cc2OC)cc1 (10 µM) 0
CN1CCN(c2ccc(Nc3cc(-c4cccc(-n5ccc6cc(C7CC7)cc(F)c6c5=O)c4CO)cn(C)c3=O)nc2)CC1 (2.5 µM) 0
C=CC(=O)N1CCC[C@@H](n2nc(-c3ccc(Oc4ccccc4)cc3)c(C(N)=O)c2N)C1 [Btk inhibitor 2] (10 µM) 0
Cc1c(NC(=O)c2cc3c(s2)CCCC3)cccc1-c1cn(C)c(=O)c(Nc2ccc([C@@H]3C(=O)N(C)CCN3C)cc2)n1 (10 µM) 0
CCOc1ccn(-c2ccc(F)cc2)c(=O)c1C(=O)Nc1ccc(Oc2ccnc(N)c2Cl)c(F)c1 (10 µM) 0
CCn1c(=O)c2cc(C(N)=O)c(N)nc2n(C2CC2)c1=O (10 µM) 0
COc1cc(C(=O)NC2CCN(C)CC2)ccc1Nc1ncc2c(n1)N(C1CCCC1)CC(F)(F)C(=O)N2C (10 µM) 0
CCN1CCN(c2ccc(Nc3cc(N(C)C(=O)Nc4c(Cl)c(OC)cc(OC)c4Cl)ncn3)cc2)CC1 [Infigratinib] (10 µM) 0
CN1CCN(S(=O)(=O)c2ccc(-c3cnc(N)c(C(=O)Nc4cccnc4)n3)cc2)CC1 (10 µM) 0
Cc1cccc([C@@H](CO)NC(=O)[C@@H](C)N2Cc3ccc(-c4nc(NC5CCOCC5)ncc4Cl)cc3C2=O)c1 [ERK1/2 inhibitor 1] (10 µM) 0
COc1cc(CCc2cc(-c3nc4ccc(N5CCN(C)CC5)cc4[nH]3)n[nH]2)cc(OC)c1 (10 µM) 0
Cc1cc(CS(=O)(=O)c2ccccc2)cc(OCc2ccc(CN3CCC[C@@H]3CO)cc2)c1 [PF-543 (Citrate)] (10 µM) 0
Cc1[nH]c(/C=C2\C(=O)Nc3ccc(S(=O)(=O)Cc4c(Cl)cccc4Cl)cc32)c(C)c1C(=O)N1CCC[C@@H]1CN1CCCC1 (2.5 µM) 0
Cc1cc(F)c(C(=O)Nc2cccc(-c3nncn3C(C)C)n2)cc1-n1cnc(C2CC2)c1 [Selonsertib] (10 µM) 0
COCCOc1cc2nccc(Nc3n[nH]c(C)c3C)c2cc1S(=O)(=O)C(C)(C)C [RIP2 kinase inhibitor 2] (2.5 µM) 0

Filtered by structure: the entries above containing a cyano group.
kinase-Nluc reporter destabilization hit call, inactive:
N#Cc1ccc2[nH]c(O)c(-c3ccc(CN4CCOCC4)cn3)c2c1 (10 µM) 0
Cn1c(=O)n(-c2ccc(C(C)(C)C#N)cc2)c2c3cc(-c4cnc5ccccc5c4)ccc3ncc21 [Dactolisib (Tosylate)] (10 µM) 0
CC(C)(/C=C(\C#N)C(=O)N1CCC[C@@H](n2nc(-c3ccc(Oc4ccccc4)cc3F)c3c(N)ncnc32)C1)N1CCN(C2COC2)CC1 (2.5 µM) 0
